In all, about 210,000 compounds went through this assay and about 5,900 (2.8%) were called active. Inconclusive results (about 5%) are left out. Calls follow the shape of the dose curve; as a rule, active = well fitted activation curve with a large enough effect; inconclusive = small, poorly fitted or top-dose-only effect; inactive = no such curve, though single readings can be large or run the other way. The entries are a selection whose mix differs from that of the whole data set. The source gives no active or inactive call for entries shown without one.
Assay: qHTS Assay for Enhancers of SMN2 Splice Variant Expression; also: nearly all actives have a fitted effect of over 55% in size; as to activity change, positive = activation: % of control where 0% means no effect
Conditions: HEK293 SMN2-luciferase splicing reporter, luminescence, 30-36 h; activity change, positive = activation: at 46.1 µM (top of the series) unless noted
Method in brief: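 qHTS luciferase splicing reporter: luminescence rises when SMN2 exon 7 is included in transfected HEK293 cells. Compound exposure lasted 30-36 h at 37C, with 4.5 mM final sodium butyrate as control, followed by a ONE-Glo read.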
`Cc1onc(C(N)=O)c1C(=O)Nc1ncc(C(F)(F)F)cc1Cl` showed an activity change, positive = activation of 43.5%.
In the case of `CCOP(=O)(OCC)C(NC(=O)c1cc([N+](=O)[O-])cc([N+](=O)[O-])c1)C(F)(F)F` (stereo not drawn), the activity change, positive = activation is reported as 40.2%.
In the case of `COc1ccc(C(=O)/C(C#N)=N/Nc2cccc([N+](=O)[O-])c2)cc1`, the “activity change, positive = activation” value is reported as inactive: -62.9%.
With `N#Cc1c(-c2ccccc2Cl)noc1/C=C/Nc1ccc(C(=O)O)cc1` the activity change, positive = activation was 72.3%.
With `CCOC(=O)Nc1cc(Br)c2c(c1)OCCO2` the activity change, positive = activation was 35.4%.
In the case of `CCOC(=O)C1=C(C)NC2=C(C(=O)C(C(=O)OCC)C(c3ccco3)C2)C1c1ccccn1` (stereo not drawn), the activity change, positive = activation is reported as 51.1%.
In the case of `CC(C)c1ccc(CN2CCN(C(=O)CCl)CC2)cc1`, the “activity change, positive = activation” value is reported as inactive: -35.2%.
For `COC(=O)C1=C(C)N=C2SC(C#N)=C(N)N2C1c1cccc(OC)c1` (stereo not drawn), the activity change, positive = activation was 44.8%.
With `Cc1c(C(=O)Nc2ccc3c(c2)OCCO3)sc2nc(-c3ccccc3)cn12` the “activity change, positive = activation” value was inactive: -117%.
In the case of `O=C(N/N=C/c1cn(-c2ccccc2)nc1-c1cc2ccccc2o1)c1ccccc1Br`, the Potency is reported as active: 4.47 µM.
For `Cc1cc(NCCCn2ccnc2)n2ncc(-c3ccccc3)c2n1`, the “activity change, positive = activation” value was inactive: -38.4%.
Work on `CCN1CCN(Cc2c(O)ccc3oc(C)c(C(=O)Nc4cccc(C(F)(F)F)c4)c23)CC1` yielded an activity change, positive = activation of -54%.
In the case of `COCCC(=O)NC12CC3CC(CC(C3)C1)C2`, the activity change, positive = activation is reported as 34.5%.
With `CCOc1ccc(-c2nnc(-c3cccs3)o2)cc1` the Potency was active: 2 µM.
For `Cc1cccc(OCC(=O)NCc2cc(C)nc3ccccc23)c1`, the “activity change, positive = activation” value was inactive: -47%.
Work on `COc1ccc(-c2noc(CCC(=O)Nc3cccc(C)c3)n2)cc1` yielded an activity change, positive = activation of 35.7%.
For `CC(NC(=S)NCCc1ccccc1)C(c1cccs1)N1CCN(Cc2ccccc2)CC1` (stereo not drawn), the “activity change, positive = activation” value was inactive: -67.1%.
Compound `CC(/C=C1\SC(=S)N(NC(=O)c2ccccc2C)C1=O)=C\c1ccccc1` has an activity change, positive = activation of -33.6%.
With `CCC(=O)OCC(=O)Nc1ccc2c(c1)OCO2` the activity change, positive = activation was 30.1%.
Compound `O=C(OCn1ncc(Br)c(Br)c1=O)c1c(F)cccc1F` has an activity change, positive = activation of -71.7%.
For `O=C(CCSCc1ccc(Cl)cc1)NCc1cccs1`, the “activity change, positive = activation” value was inactive: -61.2%.
`O=C(O)/C=C/c1ccc(OCc2cccc(F)c2)cc1` gave an activity change, positive = activation of 39.7%.
Compound `Cc1c(CNC(=O)c2cnn3c2NC(c2ccc(Br)cc2)CC3C(F)(F)F)cnn1C` (stereo not drawn) has an activity change, positive = activation of 38.9%.
With `CNC(=O)C(C)NS(=O)(=O)c1ccc(F)cc1` (stereo not drawn) the activity change, positive = activation was 27.7%.
With `C/C(=N/NC(=O)Cc1cc(=O)[nH][nH]1)c1ccc([N+](=O)[O-])cc1` the activity change, positive = activation was 53.5%.
With `CCOC(=O)c1ccc(S(=O)(=O)NNC(=O)COc2cccc(C)c2)cc1` the activity change, positive = activation was 14.3%.
Compound `Nc1nnc(COc2ccccc2)s1` has an activity change, positive = activation of 36.7%.
Work on `O=C1CC(N2CCC(c3nc4ccccc4o3)CC2)C(=O)N1Cc1cccs1` (stereo not drawn) yielded an activity change, positive = activation of 21.2%.
With `O=C(Oc1ccccc1)c1ccc2nccnc2c1` the activity change, positive = activation was 30.5%.
For `COc1cccc(C(=O)Oc2c(Sc3ccc(C)cc3)c(C)nn2C(C)(C)C)c1OC`, the “activity change, positive = activation” value was inactive: -82.1%.
With `CCN(CC)CCCNC(=O)CCC(=O)NNc1nc2ccccc2c2nc(C)nn12` the Potency was “inactive”.
With `COc1ccc(-c2csc(NC(=O)c3cccc(S(=O)(=O)N4CCN(C)CC4)c3)n2)cc1` the activity change, positive = activation was -40.5%.
For `O=C(c1cc(C(F)(F)F)cc(C(F)(F)F)c1)N1CCC2(CCN(Cc3ccncc3)CC2)CC1`, the “activity change, positive = activation” value was inactive: -42.7%.
For `Clc1ccc(OCc2cn3cccnc3n2)c2ncccc12`, the Potency was active: 11.2 µM.
In the case of `CN(c1cccc(NC(=O)c2ccccc2N(C)S(C)(=O)=O)c1)S(C)(=O)=O`, the activity change, positive = activation is reported as 34.1%.
With `C/C=C/c1ccccc1OCc1ccc(C(=O)O)o1` the activity change, positive = activation was 33.7%.
Work on `COc1ccc(CNC(=O)c2c(C)cc(=O)oc2C)cc1OC` yielded an activity change, positive = activation of 30.9%.
Work on `Cc1sc2nc(CSc3ccc([N+](=O)[O-])c(C(F)(F)F)c3)[nH]c(=O)c2c1C` yielded an activity change, positive = activation of 2.13%.
Work on `CCOc1ccc2nc(-c3cc(NC(C)=O)ccc3O)sc2c1` yielded an activity change, positive = activation of 55%.
`CCOC(=O)c1csc(NC(=O)CSc2nnnn2-c2ccc3c(c2)OCCO3)n1` gave an activity change, positive = activation of -81.1%.
Compound `COc1ccc(-c2ccc(SCC(=O)Nc3cc(C)on3)nn2)cc1OC` has an activity change, positive = activation of 36.3%.
For `COc1cc(SC)ccc1C(=O)Nc1ccc2c(c1)OCCO2`, the Potency was active: 5.62 µM.
`CCOc1ccc(NC(=S)N2CCC(C(O)(c3ccccc3)c3ccccc3)CC2)cc1` showed an activity change, positive = activation of -2.5%.
For `Cc1ccc(NC(=S)c2nc3ccccc3[nH]2)cc1`, the Potency was active: 28.2 µM.
With `CCOc1ccccc1NC(=O)c1ccccc1N(C)S(C)(=O)=O` the activity change, positive = activation was 24.3%.
`Cn1c(C(=O)N2CCN(c3nc4ccccc4s3)CC2)cc2sccc21` showed an activity change, positive = activation of -61.8%.
In the case of `CCC(=C(CC)c1ccc(O)cc1)c1ccc(O)cc1`, the “activity change, positive = activation” value is reported as inactive: -24.2% [at 20.6 µM].
For `COc1ccc(CCNC(=O)C(=O)NCCOc2ccccc2Cl)cc1OC`, the “activity change, positive = activation” value was inactive: -0.877%.
`O=C(Nc1ccc(-c2ccc3nncn3n2)cc1)C1CCCCC1` gave an activity change, positive = activation of 37.8%.
In the case of `O=C(Nc1nc(-c2ccc(S(=O)(=O)N3CCCC3)cc2)cs1)c1cccs1`, the activity change, positive = activation is reported as -84.3%.
For `CCC1CCCCN1CCCNC(=O)c1cc2c(=O)[nH]c3ccccc3c2n1C` (stereo not drawn), the “activity change, positive = activation” value was inactive: -38.2%.
In the case of `C/C=C(\C)c1nnc(NC(=O)c2ccco2)s1`, the Potency is reported as active: 12.6 µM.
In the case of `O=C(/C=C/c1cn(-c2ccccc2)nc1-c1cccc(Cl)c1)N1CCN(c2ccccn2)CC1`, the “activity change, positive = activation” value is reported as inactive: -49.8%.
For `COc1ccc(C(=O)Oc2cc(-c3ccc(OC)c(OC)c3)cc(=O)c3c(C)oc(C)c23)cc1`, the activity change, positive = activation was 45.2%.
`Cc1cc(C)c2cc(C#N)c(SCC(=O)NCc3ccco3)nc2c1` gave an activity change, positive = activation of 36.3%.
`COc1cccc(-c2ccc(-c3noc(-c4cccs4)n3)c(OC)n2)c1` showed an activity change, positive = activation of 23.2%.
In the case of `COCCOC(=O)c1c(C)oc2ccc(NS(=O)(=O)c3ccccc3)cc12`, the activity change, positive = activation is reported as 38.4%.
For `COc1ccc(C(=O)/C=C/c2cn(CC(O)CN3CCOCC3)c3ccccc23)cc1` (stereo not drawn), the “activity change, positive = activation” value was inactive: -51%.
With `CCOc1ccccc1C1N=C(c2ccc(OC)cc2)CC(c2ccccc2O)N1` (stereo not drawn) the activity change, positive = activation was 105%.
`Cc1cc(C)cc(OCCCC(=O)O)c1` showed an activity change, positive = activation of 30.4%.
`COc1ccc(S(=O)(=O)N2CCC(C(=O)NCCc3ccccc3)CC2)cc1OC` showed an activity change, positive = activation of 30.8%.
In the case of `Cc1ccc(C(=O)N/C(=C/c2cccs2)C(=O)NCCc2c[nH]c3ccccc23)cc1`, the activity change, positive = activation is reported as 52.9%.
With `CNc1ccc(Br)cc(C(=O)/C=C/c2cccc(OC)c2OC)c1=O` the activity change, positive = activation was -95.8%.
Compound `COc1cc(C=Nc2c(C)cc(C)cc2C)ccc1OC(C)=O` has an activity change, positive = activation of 34.3%.
For `Cc1oc(/N=C/c2ccc(O)cc2O)c(C#N)c1C`, the “activity change, positive = activation” value was inactive: -8.29%.
With `CCN(CC)C(=O)CSc1nnc(-c2ccc(S(=O)(=O)N3CCCC3)cc2)o1` the activity change, positive = activation was 29.3%.
Work on `CC(=O)Nc1ccc(Nc2nc(C)nc3c2oc2ccccc23)cc1` yielded an activity change, positive = activation of 17.6%.
`O=C(CC1N=C2c3ccccc3N=C(SCC(=O)Nc3cccc(Cl)c3)N2C1=O)NCc1cccs1` (stereo not drawn) showed an activity change, positive = activation of 41.1%.

Reference: PubChem BioAssay AID1458 (National Center for Advancing Translational Sciences (NCATS), 2008)
Potency is read from the fitted curve at half-maximal effect.
